In general, AC50 refers to the concentration giving half of the maximal activity seen.

This assay is described as follows: qHTS Assay to Find Inhibitors of Chronic Active B-Cell Receptor Signaling. The note with it: ABC-DLBCL IkBa-CBG/CBR reporter, luminescence ratio (green luciferase fused to IkBa over red control in TMD8 lymphoma cells), 4 h. Put shortly: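 Compounds up to 46 uM were incubated four hours with TMD8 cells whose green CBG68 luciferase is fused to IkappaBalpha; red CBR luminescence normalised the signal, and concentration-effect curves were fitted to fusion, red and ratio data.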

Setting [1] is: measured here: CBR red luminescence, cell number.
[2] abbreviates: measured here: IkBa-CBG green luminescence.

The structures appear in SMILES notation. This is one part of the list. Shown are side measurements of this screen, not its main read-out; they come without a call. Most of these compounds were active or inconclusive in the main read-out, so they are no random draw. Potencies come from curve fits of mixed quality, noted in brackets.

For `COC(=O)C1=C(c2ccc(F)cc2OCc2ccccc2)C[C@@H]2CC[C@H]1N2C(=O)NCc1ccc([N+](=O)[O-])cc1`, the AC50 under setting [1] is 25.9 µM [falling, single point]. In the case of `CC(=O)Nc1ccc2c(c1)CC1(C(=O)N(C)C(=O)N(C)C1=O)C1CCCN21` (configuration not stated), under setting [1], the half-maximal activity concentration (AC50) was 2.51 µM [rising, full curve, poor fit]. Still for that read-out and setting: next, `N/C(=N\NC(=O)Nc1ccc(Cl)cc1)c1ccccn1`: 8.91 µM [falling, partial curve, poor fit]; `CCOP(=O)(OCC)c1nc(-c2ccc(OC)cc2)oc1N1CCOCC1`: 3.16 µM [rising, full curve, poor fit]. In the case of `Clc1ccc(COC(Cn2ccnc2)c2ccc(Cl)cc2Cl)c(Cl)c1` (configuration not stated), the AC50 under setting [1] is 14.1 µM [falling, partial curve, poor fit] and the AC50 under setting [2] was 29.1 µM [falling, single point]. As for `COC(=O)C1=C(c2ccc3ccccc3c2)C[C@@H]2CC[C@H]1N2C(=O)NC1Cc2ccccc2C1`, the concentration at half-maximal activity (AC50) under setting [1] is 4.61 µM [falling, partial curve]. On to `CCc1ccccc1NC(=O)CNC1CCCCC1`, for which the half-maximal activity concentration (AC50) under setting [1] was 20 µM [falling, partial curve, poor fit]. Regarding `Cn1c(=O)cc(OCCCC(=O)N2CCC3(CC2)OCCO3)c2ccccc21`, the AC50 under setting [1] is 25.1 µM [rising, single point]. Same read-out and setting: next, `CCN1CCc2c(sc(NC(=O)c3cc4ccccc4cc3OC)c2C(N)=O)C1`: 14.1 µM [falling, single point]; `CCCCCn1c(=O)c2ccccc2n2c(CCl)nnc12`: 20 µM [falling, partial curve, poor fit]. As for `CN(C)C(Cc1ccccc1)C(=O)c1ccccc1` (configuration not stated), the AC50 under setting [1] is 1.64 µM [rising, full curve, poor fit]. Turning to `Cn1cc(Br)c(C(=O)Nc2ccc3c(C(F)(F)F)cc(=O)oc3c2)n1`, under setting [1], the AC50 is 0.891 µM [falling, full curve, poor fit]. Consider `O=c1[nH]c(=S)[nH]c(O)c1/C=C1/C=c2ccccc2=N1`, for which the AC50 under setting [1] was 31.6 µM [rising, single point] and the AC50 under setting [2] is 35.5 µM [falling, single point]. With `CCC(=NCCc1ccccc1)c1c(O)n(C2CCCCC2)c(=O)[nH]c1=O`, the AC50 under setting [1] is 13 µM [rising, partial curve, poor fit]. Still for that read-out and setting: next, `COc1ccccc1OCCCn1cc(C(=O)C2CC2)c2ccccc21`: 35.5 µM [falling, single point]. Take `COc1ccc(OC(=O)N(C)C)c(CN(C)C)c1`: the AC50 is, setting by setting: under setting [1], 4.11 µM [rising, partial curve, poor fit]; under setting [2], 3.26 µM [falling, partial curve, poor fit].

As to `c1ccc(CN2CCc3nc4ccccc4cc3C2)cc1`, under setting [1], the AC50 was 10 µM [rising, partial curve, poor fit]. As to `CCN(CC)CCCOC(=O)C(OC(C)C)(c1ccccc1)c1ccccc1`, under setting [1], the half-maximal activity concentration (AC50) is 7.31 µM [falling, partial curve]. Still for that read-out and setting: next, `O=C(Nc1ccc(Cl)c(Cl)c1)O/N=C/c1ccncc1`: 0.461 µM [rising, full curve, poor fit].

Turning to `CCOP1(=S)Oc2cc3c(cc2C(C(=O)OC)(C(F)(F)F)O1)OCO3` (configuration not stated), the AC50 under setting [1] is 9.2 µM [falling, partial curve, poor fit]. `CC(=NCCCn1ccnc1)c1c(O)n(C2CCCCC2)c(=O)[nH]c1=O`: under setting [1], the AC50 is 0.794 µM [rising, full curve, poor fit]. Same read-out and setting: next, `CCOC(=O)c1c(N)n(Cc2ccc(OC)cc2)c2nc3ccccc3nc12`: 22.4 µM [falling, single point]; `O=c1cc(-c2ccc(O)c(O)c2)oc2cc(O)cc(O)c12`: 12.6 µM [falling, partial curve, poor fit].

`CCN(CC)C(=O)c1ccc(NC(=O)CNC(C)c2cccc3ccccc23)cc1` (configuration not stated): the AC50 under setting [1] is 14.1 µM [falling, single point]. For the molecule `Nc1ccccc1C(=O)OCCc1ccccc1`, the AC50 under setting [1] is 9.2 µM [falling, partial curve, poor fit]. Same read-out and setting: in the case of `Clc1ccc2c(c1)C(c1ccccc1Cl)=NCc1nnc(N3CCN(CCOc4ccccc4)CC3)n1-2` it was 23.1 µM [falling, single point]. Consider `CCCCCn1c(=O)c(C(=O)NC(C)c2ccccc2)c(O)c2ccccc21` (configuration not stated), for which the AC50 under setting [1] is 2 µM [rising, full curve, poor fit].

Turning to `COc1ccc(CC(C)Nc2cccc(F)c2)cc1` (configuration not stated), the concentration at half-maximal activity (AC50) under setting [1] is 3.16 µM [rising, full curve, poor fit]. Same read-out and setting: in the case of `COc1c(C)cc(C(=O)C2CCCN(Cc3cnc(C)s3)C2)cc1C` (configuration not stated) it was 15.8 µM [rising, single point]; in that of `CNC(=O)N(C)c1nnc(C(C)(C)C)s1`, 7.31 µM [rising, partial curve, poor fit]. On the same count and under the same terms, next, `O=C(O)C1C2CCC(O2)C1C(=O)Nc1ccc(Cl)cc1` (configuration not stated): 31.6 µM [rising, single point].

As for `NC(=S)c1cn(C2OC(CO)C(O)C2O)c2ncnc(N)c12` (configuration not stated), the AC50 is, setting by setting: under setting [1], 1.58 µM [falling, full curve]; under setting [2], 1 µM [rising, full curve, poor fit].

For the molecule `CN1CCC2(O)OCCCC2C1` (configuration not stated), the AC50 under setting [1] was 12.6 µM [falling, partial curve, poor fit].

Regarding `Cc1ccc(-c2cc(-c3ccccc3)cc(-c3ccccc3)[n+]2-c2ccccc2)cc1`, the AC50 under setting [1] is 23.1 µM [falling, single point] and the AC50 under setting [2] was 20.6 µM [rising, partial curve, poor fit]. With `C[C@]12CCC3[C@@H](CCC4=CC(=O)CC[C@@]43C=O)C1CCC2=O` (some centres not stated), the AC50 under setting [1] was 35.5 µM [rising, single point]. Same read-out and setting: next, `CC(=O)c1c(O)n(C2CCCCCC2)c(=O)[nH]c1=O`: 18.4 µM [rising, single point]; `COC1=C(C)C(=O)O[C@]12C(=O)C(C)=C1CCCCN3[C@H]([C@@H]4C[C@H](C)C(=O)O4)CC[C@]132`: 5.8 µM [falling, full curve, poor fit]. In the case of `Cn1c(=O)oc2cc(S(=O)(=O)N3CCc4ccccc43)ccc21`, the concentration at half-maximal activity (AC50) under setting [1] was 35.5 µM [falling, single point]. As for `O=C1Nc2cc(C(=O)N3CCC4(CC3)OCCO4)ccc2NC1CSCc1cccc(F)c1` (configuration not stated), the AC50 is 25.1 µM [rising, single point] under setting [1] and 35.5 µM [falling, single point] under setting [2]. Consider `FC(F)(F)C1=NC(C(F)(F)F)=NP(N2CCOCC2)(N2CCOCC2)=N1`, for which, under setting [1], the AC50 is 3.26 µM [falling, partial curve, poor fit]. Same read-out and setting: next, `COC(=O)C1=C(c2ccc(F)cc2OCc2ccccc2)C[C@@H]2CC[C@H]1N2C(=O)NCCc1ccc(F)cc1`: 20.6 µM [falling, partial curve, poor fit]. On to `Cc1ccc2c(c1)=C/C(=C\c1c(O)[nH]c(=O)[nH]c1=O)C(=O)N=2`, for which the AC50 under setting [1] is 1.3 µM [rising, full curve, poor fit]. `COc1ccccc1N1CCN(Cc2c(F)cccc2F)CC1`: the AC50 under setting [1] was 20.6 µM [rising, single point]. Still for that read-out and setting: in the case of `O=c1[nH]c(=O)n(-c2ccccc2Cl)c(O)c1C=NCCN1CCCCC1` it was 20.6 µM [rising, single point]; in that of `CC(NCc1cccc(Cl)c1Cl)C(O)c1ccccc1` (configuration not stated), 9.2 µM [rising, partial curve, poor fit]. Still for that read-out and setting: next, `NC(=O)CN1CC(c2ccccc2)CC1=O` (configuration not stated): 0.164 µM [rising, single point]. The same measure, in the same setting: next, `CCc1nc2ccccc2c(=O)n1-c1ccccc1[N+](=O)[O-]`: 29.1 µM [rising, single point]; `Oc1ccc(Cl)cc1Cc1cc(Cl)ccc1O`: 29.1 µM [falling, single point]; `COc1cc(CN2C(=O)NC(=O)C3(Cc4cc(C)ccc4N(C)C3)C2=O)cc(OC)c1` (configuration not stated): 3.26 µM [falling, single point]. For `CCOC(=O)[C@@H]1[C@H]2COc3ccc(Br)cc3[C@@H]2N2C(=O)N(c3cccc(C)c3)C(=O)[C@]12C`, under setting [1], the AC50 was 8.91 µM [falling, partial curve, poor fit]. For the molecule `CN(C)CCc1nc2ccccc2c(=O)n1-c1ccccc1`, the AC50 under setting [1] was 1.84 µM [rising, partial curve].

For the molecule `Cc1ccccc1NC(=O)Cn1c(=O)oc2cc(Br)ccc21`, the AC50 under setting [1] was 5.01 µM [falling, partial curve, poor fit].

On to `O=C(N/N=C/c1c(O)n(CCc2ccccc2)c(=O)[nH]c1=O)c1ccccc1O`, for which, under setting [1], the AC50 is 2.82 µM [falling, full curve]. The same measure, in the same setting: in the case of `CC(C)=CCSc1nnc([C@@H](N)Cc2c[nH]c3ccccc23)o1` it was 11.6 µM [rising, partial curve, poor fit]; in that of `COc1cccc(NP(=O)(Oc2ccccc2Cl)Oc2ccccc2Cl)c1`, 5.8 µM [falling, partial curve, poor fit].

For the molecule `COC(=O)C1=C(c2ccc3ccccc3c2)C[C@@H]2CC[C@H]1N2C(=O)N1CCC(C)CC1`, the AC50 under setting [1] was 32.6 µM [falling, single point]. Still for that read-out and setting: next, `COC(=O)c1cc(CSc2nc3ccc(C)cc3[nH]2)oc1C`: 11.2 µM [falling, partial curve, poor fit]; `COc1ccc(-n2c(/C=C/c3cccc(F)c3)nc3ccccc3c2=O)c(OC)c1`: 0.708 µM [rising, full curve, poor fit]; `COc1ccc(CN2C(=O)C(C)N(C(=O)c3c(F)cccc3F)c3ccccc32)cc1` (configuration not stated): 35.5 µM [falling, single point]. On to `COc1ccc(-c2nn(CCC#N)cc2C(=O)Nc2ccc(C(C)=O)cc2)cc1`, for which the AC50 under setting [1] was 17.8 µM [rising, partial curve, poor fit] and the AC50 under setting [2] is 12.6 µM [falling, single point].

Source of the values: PubChem BioAssay AID493014 (National Center for Advancing Translational Sciences (NCATS), 2011).
